From patent US20260158136A1, “MEDICAMENT FOR TREATMENT AND/OR PREVENTION OF CANCER” (TORAY INDUSTRIES, INC., priority 2022, published 2026)
Some entries share one result that the patent states for a list of compounds.

Columns and labels:
[1] = tested on: human colon cancer cell line (HCT116); experiment: THP-1-mediated phagocytic activity against HCT116, anti-CAPRIN-1 antibody with palbociclib or abemaciclib, control IgG included (Example 2B); format: cell-based; settings: for phagocytic activity against cancer cells: CDK inhibitor combination test group: HCT116 cultured 2 days with palbociclib (10 M) or abemaciclib (1 μM), then anti-CAPRIN-1 humanized antibody #1 1 μg/mL + THP-1, 1 h; for increase of antitumor effect of the anti-CAPRIN-1 antibody by the combination: combination versus antibody alone, HCT116
Method: (§1) Specifically, in CDK inhibitor combination test group, the indicated drug used in combination was applied to human cancer cells, and then the cancer cells were cocultured with human monocytic cells (THP-1) in the presence of the anti-CAPRIN-1 antibody, and the antibody-mediated phagocytic activity against the cancer cells by THP-1 was evaluated. A human IgG antibody (Sigma-Aldrich Co. LLC, Cat. No.: 4506) was used as a control antibody.
The human-derived cancer cell used was a colon cancer cell line HCT116. On a 6-well plate, the human-derived cancer cells were cultured for 2 days in the presence of the palbociclib ([…]) or abemaciclib (1 μM), for the CDK inhibitor combination test group. As a control, a test group without a drug used in combination, in which only the anti-CAPRIN-1 antibody was added, was established. In the control group, the cancer cells were cultured for 2 days without addition of the drug used in combination beforehand.
(§2) Each cancer cell line after the culture was dissociated with TrypLE Express (Thermo), and the cancer cells were stained by the addition of calcein-AM at a final concentration of 0.04 μg/mL and incubation at 37° C. for 10 minutes. Next, the cells were dispensed at 5×10^3 cancer cells per well to a 96-well plate, and the anti-CAPRIN-1 antibody at a final concentration of 1 μg/mL (or control IgG antibody at the same concentration) and 1.25×10^5 THP-1 cells were added to each well, followed by culture at 37° C. for 1 hour under a condition of 5% CO2. Then, the cells were washed with PBS (phosphate buffer solution) containing 1% FBS (fetal bovine serum), and the human monocytic cells were stained through a reaction with an APC (allophycocyanin)-labeled anti-human CD45 antibody (final concentration: 0.25 g/mL). Further, dead cells were stained with propidium iodide (PI) (final concentration: 0.1 μg/mL), followed by the measurement of fluorescence from the cells by flow cytometry. PI-positive dead cells were excluded from analysis. The human monocytic cells THP-1 recognize an antibody bound onto cancer cells and phagocytize the cancer cells. At that time, if the cancer cells have been stained with calcein-AM, the monocytic cells ingesting the cancer cells by phagocytosis also become positive to calcein-AM. Thus, the phagocytic activity in this evaluation system was calculated as the ratio (%) of APC-positive/calcein-AM-positive cells to the whole calcein-AM-positive population.

[2] = tested on: human colon cancer cell line (HCT116); experiment: THP-1-mediated phagocytic activity against HCT116, anti-CAPRIN-1 antibody with palbociclib or abemaciclib (Example 2A); format: cell-based; settings: for phagocytic activity against cancer cells: CDK inhibitor combination test group: HCT116 cultured 2 days with palbociclib 10 μM or abemaciclib 1 μM, then anti-CAPRIN-1 humanized antibody #1 1 μg/mL + THP-1, 1 h; for increase of antitumor effect of the anti-CAPRIN-1 antibody by the combination: combination versus antibody alone, HCT116
Method: as §1, with “evaluated.” for “evaluated. A human IgG antibody (Sigma-Aldrich Co. LLC, Cat. No.: 4506) was used as a control antibody.”
The human-derived cancer cell used was a colon cancer cell line HCT116. On a 6-well plate, the human-derived cancer cells were cultured for 2 days in the presence of palbociclib (10 μM) or abemaciclib (1 μM) for the CDK inhibitor combination test group. As a control, a test group without a drug used in combination, in which only the anti-CAPRIN-1 antibody was added, was established. In the control group, the cancer cells were cultured for 2 days without addition of the drug used in combination beforehand.
as §2, with “antibody (final concentration:” for “antibody at a final concentration of”, “1 μg/mL)” for “1 μg/mL (or control IgG antibody at the same concentration)”, “1 hours” for “1 hour”, “0.25 μg/mL).” for “0.25 g/mL).”

Row | Structure (SMILES) | phagocytic activity against cancer cells [1] | increase of antitumor effect of the anti-CAPRIN-1 antibody by the combination [1] | phagocytic activity against cancer cells [2] | increase of antitumor effect of the anti-CAPRIN-1 antibody by the combination [2]
1 | CCN1CCN(Cc2ccc(Nc3ncc(F)c(-c4cc(F)c5nc(C)n(C(C)C)c5c4)n3)nc2)CC1 [abemaciclib, N-[5-[(4-ethylpiperazin-1-yl)methyl]pyridin-2-yl]-5-fluoro-4-(7-fluoro-2-methyl-3-propan-2-ylbenzimidazol-5-yl)pyrimidin-2-amine] | ≥ 70% | ≥ 2 times | ≥ 70% | ≥ 2 times
2 | CC(=O)c1c(C)c2cnc(Nc3ccc(N4CCNCC4)cn3)nc2n(C2CCCC2)c1=O [palbociclib, 6-acetyl-8-cyclopentyl-5-methyl-2-[(5-piperazin-1-ylpyridin-2-yl)amino]pyrido[2,3-d]pyrimidin-7-one] | ≥ 70% | ≥ 2 times | ≥ 70% | ≥ 2 times
